This experiment relates to Salmonella enterica serovar Typhimurium SL1344. The experiment in a line: normalized intracellular growth (luminescence, IQM-normalized) in RAW264.7 macrophages (fraction of plate interquartile mean); higher = more bacterial growth (less inhibition). The note with it: 10 µM.

SMILES strings stand for the structures. ± gives the standard deviation of the averaged measurements. In all, about 1,600 compounds were measured (“normalized intracellular growth (luminescence, IQM-normalized) in RAW264.7 macrophages”: median about 1, lowest 2% from about 0.43 on). The list shows a part of the results.

Consider `Nc1ccc(S(=O)(=O)O)cc1.Nc1ccc(S(=O)(=O)O)cc1.[Zn]`, for which the normalized intracellular growth by setting is: (time point: T3 (3 h)) 1.01 ± 0.047; (time point: Tfinal (~6 h)) 1.15 ± 0.099.

In the case of `C#C[C@]1(O)CC[C@H]2[C@@H]3CCC4=Cc5oncc5C[C@]4(C)[C@H]3CC[C@@]21C`, the normalized intracellular growth is, setting by setting: (time point: T3 (3 h)) 0.982 ± 0.01; (time point: Tfinal (~6 h)) 0.976 ± 0.073.

Regarding `CCOc1ccc(Cc2nccc3cc(OCC)c(OCC)cc23)cc1OCC`, the normalized intracellular growth was found to be 0.925 ± 0.09 (time point: T3 (3 h)) and 0.43 ± 0.11 (time point: Tfinal (~6 h)).

On to `O=C(Nc1ccc([N+](=O)[O-])cc1Cl)c1cc(Cl)ccc1O`, for which the normalized intracellular growth by setting is: (time point: T3 (3 h)) 1.17 ± 0.064; (time point: Tfinal (~6 h)) 0.514 ± 0.088.

Regarding `CN1C(C(=O)Nc2ccccn2)=C(O)c2sc(Cl)cc2S1(=O)=O`, the normalized intracellular growth is 1.02 ± 0.021 (time point: T3 (3 h)) and 0.807 ± 0.14 (time point: Tfinal (~6 h)).

Turning to `CC12CC3CC(C)(C1)CC(N)(C3)C2`, the normalized intracellular growth is 0.987 ± 0.018 (time point: T3 (3 h)) and 1.12 ± 0.23 (time point: Tfinal (~6 h)).

Take `Nc1ccc(S(=O)(=O)Nc2nccs2)cc1`: the normalized intracellular growth runs as follows: (time point: T3 (3 h)) 1.2 ± 0.14; (time point: Tfinal (~6 h)) 1.26 ± 0.098.

Compound `Cc1ccc(-c2cc(C(F)(F)F)nn2-c2ccc(S(N)(=O)=O)cc2)cc1` returned a normalized intracellular growth (time point: T3 (3 h)) of 1.02 ± 0.1 and a normalized intracellular growth (time point: Tfinal (~6 h)) of 0.848 ± 0.12.

As to `CC(C)[N+]1(C)[C@@H]2CC[C@H]1C[C@@H](OC(=O)C(CO)c1ccccc1)C2` (stereo partly specified), the normalized intracellular growth by setting is: (time point: T3 (3 h)) 1 ± 0.096; (time point: Tfinal (~6 h)) 0.779 ± 0.087.

Consider `CC[C@H]1OC(=O)[C@H](C)[C@@H](O[C@H]2C[C@@](C)(OC)[C@@H](O)[C@H](C)O2)[C@H](C)[C@@H](O[C@@H]2O[C@H](C)C[C@H](N(C)C)[C@H]2O)[C@](C)(O)C[C@@H](C)CN(C)[C@H](C)[C@@H](O)[C@]1(C)O`, for which the normalized intracellular growth came to 1.05 ± 0.039 (time point: T3 (3 h)) and 0.00697 ± 0.00054 (time point: Tfinal (~6 h)).

On to `CN[C@H]1CC[C@@H](c2ccc(Cl)c(Cl)c2)c2ccccc21`, for which the normalized intracellular growth reads like this: (time point: T3 (3 h)) 0.689 ± 0.092; (time point: Tfinal (~6 h)) 1 ± 0.047.

In the case of `CCN(CC)CCNC(=O)c1ccc(N)cc1`, the normalized intracellular growth runs as follows: (time point: T3 (3 h)) 0.968 ± 0.13; (time point: Tfinal (~6 h)) 1.05 ± 0.13.

As for `NC[C@H](O)c1ccc(O)c(O)c1`, the normalized intracellular growth was 0.998 ± 0.033 (time point: T3 (3 h)) and 0.948 ± 0.096 (time point: Tfinal (~6 h)).

With `CCCCCCOc1ccccc1C(N)=O`, the normalized intracellular growth is, setting by setting: (time point: T3 (3 h)) 1.06 ± 0.059; (time point: Tfinal (~6 h)) 0.999 ± 0.025.

For the compound `O=C(O)C1=C(CSc2nnnn2CS(=O)(=O)O)CS[C@@H]2[C@H](NC(=O)[C@H](O)c3ccccc3)C(=O)N12`, the normalized intracellular growth is, setting by setting: (time point: T3 (3 h)) 0.979 ± 0.034; (time point: Tfinal (~6 h)) 0.824 ± 0.19.

For the compound `Cc1cc2cc3c(C)cc(=O)oc3c(C)c2o1`, the normalized intracellular growth turned out to be 0.871 ± 0.046 (time point: T3 (3 h)) and 0.956 ± 0.06 (time point: Tfinal (~6 h)).

In the case of `CC(=O)Nc1c(I)cc(I)c(C(=O)O)c1I`, the normalized intracellular growth was 0.99 ± 0.042 (time point: T3 (3 h)) and 0.715 ± 0.31 (time point: Tfinal (~6 h)).

For `CC(=O)Nc1nnc(S(N)(=O)=O)s1`, the normalized intracellular growth was 0.933 ± 0.088 (time point: T3 (3 h)) and 1.01 ± 0.076 (time point: Tfinal (~6 h)).

For the compound `CC(C)Oc1ccc2c(=O)c(-c3ccccc3)coc2c1`, the normalized intracellular growth amounted to 0.959 ± 0.051 (time point: T3 (3 h)) and 1.02 ± 0.078 (time point: Tfinal (~6 h)).

As for `O=C(CCCl)NCCc1ccccc1`, the normalized intracellular growth came to 1.055 ± 0.0032 (time point: T3 (3 h)) and 1.02 ± 0.1 (time point: Tfinal (~6 h)).

In the case of `CCCCOc1cc(C(=O)OCCN(CC)CC)ccc1N`, the normalized intracellular growth is, setting by setting: (time point: T3 (3 h)) 1.25 ± 0.086; (time point: Tfinal (~6 h)) 1.22 ± 0.047.

`C[N+](C)(C)CC(O)CC(=O)[O-]` (stereo unspecified): the normalized intracellular growth by setting is: (time point: T3 (3 h)) 0.978 ± 0.032; (time point: Tfinal (~6 h)) 0.91 ± 0.16.

Regarding `COC(=O)[C@H](Cc1ccccc1)NC(=O)[C@@H](N)CC(=O)O`, the normalized intracellular growth was found to be 0.969 ± 0.022 (time point: T3 (3 h)) and 0.953 ± 0.032 (time point: Tfinal (~6 h)).

As to `COc1cc(CNC(=O)CCCC/C=C/C(C)C)ccc1O`, the normalized intracellular growth runs as follows: (time point: T3 (3 h)) 0.728 ± 0.068; (time point: Tfinal (~6 h)) 1.02 ± 0.1.

For `O=C(NCCCN1CCOCC1)c1ccc(Cl)cc1`, the normalized intracellular growth by setting is: (time point: T3 (3 h)) 1.25 ± 0.11; (time point: Tfinal (~6 h)) 1.35 ± 0.15.

As to `C[C@]12CC[C@@H]3c4ccc(O)cc4C[C@@H](CCCCCCCCC[S+]([O-])CCCC(F)(F)C(F)(F)F)[C@H]3[C@@H]1CC[C@@H]2O` (stereo partly specified), the normalized intracellular growth is, setting by setting: (time point: T3 (3 h)) 1.03 ± 0.022; (time point: Tfinal (~6 h)) 1.03 ± 0.012.

On to `CO/N=C(\C(=O)N[C@@H]1C(=O)N2C(C(=O)O)=C(COC(C)=O)CS[C@H]12)c1csc(N)n1`, for which the normalized intracellular growth is, setting by setting: (time point: T3 (3 h)) 0.898 ± 0.017; (time point: Tfinal (~6 h)) 0.178 ± 0.0072.

For `CC(C)[C@H](N)C(=O)OCCOCn1cnc2c(=O)nc(N)[nH]c21`, the normalized intracellular growth came out at 0.939 ± 0.015 (time point: T3 (3 h)) and 0.75 ± 0.054 (time point: Tfinal (~6 h)).

Consider `CC1(C)O[C@@H]2C[C@H]3[C@@H]4C[C@H](F)C5=CC(=O)C=C[C@]5(C)[C@@]4(F)[C@@H](O)C[C@]3(C)[C@]2(C(=O)CO)O1`, for which the normalized intracellular growth reads like this: (time point: T3 (3 h)) 0.912 ± 0.038; (time point: Tfinal (~6 h)) 0.864 ± 0.022.

As for `COc1cc(NS(=O)(=O)c2ccc(N)cc2)ncn1`, the normalized intracellular growth is 0.981 ± 0.045 (time point: T3 (3 h)) and 0.984 ± 0.042 (time point: Tfinal (~6 h)).

As for `CCCCCCCC/C=C\CCCCCCCC(=O)O.NCCO`, the normalized intracellular growth by setting is: (time point: T3 (3 h)) 1.05 ± 0.035; (time point: Tfinal (~6 h)) 1.09 ± 0.041.

In the case of `Cc1cc(C)nc(NS(=O)(=O)c2ccc(N)cc2)n1`, the normalized intracellular growth worked out at 1 ± 0.061 (time point: T3 (3 h)) and 0.986 ± 0.059 (time point: Tfinal (~6 h)).

With `CN(C(=O)CN(CCO)CC(=O)N(C)C(C)(C)Cc1ccccc1)C(C)(C)Cc1ccccc1`, the normalized intracellular growth runs as follows: (time point: T3 (3 h)) 0.944 ± 0.065; (time point: Tfinal (~6 h)) 1.13 ± 0.2.

Compound `COC(=O)N/N=C/c1c[n+]([O-])c2ccccc2[n+]1[O-]` displayed a normalized intracellular growth (time point: T3 (3 h)) of 0.957 ± 0.032 and a normalized intracellular growth (time point: Tfinal (~6 h)) of 0.309 ± 0.16.

On to `C[C@@H]1C/C=C/C=C/C=C/C=C/[C@H](O[C@@H]2O[C@H](C)[C@@H](O)[C@H](N)[C@@H]2O)C[C@@H]2O[C@](O)(C[C@@H](O)C[C@H]3O[C@@H]3/C=C/C(=O)O1)C[C@H](O)[C@H]2C(=O)O`, for which the normalized intracellular growth amounted to 1.08 ± 0.014 (time point: T3 (3 h)) and 0.574 ± 0.077 (time point: Tfinal (~6 h)).

Take `COc1ccc(Cl)cc1C(=O)NCCc1ccc(S(=O)(=O)NC(=O)NC2CCCCC2)cc1`: the normalized intracellular growth came out at 0.987 ± 0.047 (time point: T3 (3 h)) and 1.21 ± 0.021 (time point: Tfinal (~6 h)).

As for `CC#C[C@]1(O)CC[C@H]2[C@@H]3CCC4=CC(=O)CCC4=C3[C@@H](c3ccc(N(C)C)cc3)C[C@@]21C`, the normalized intracellular growth reads like this: (time point: T3 (3 h)) 0.979 ± 0.068; (time point: Tfinal (~6 h)) 1.17 ± 0.17.

As for `CCCCCCNC(=O)n1cc(F)c(=O)[nH]c1=O`, the normalized intracellular growth runs as follows: (time point: T3 (3 h)) 1 ± 0.021; (time point: Tfinal (~6 h)) 0.593 ± 0.4.

As for `O=C(CCBr)N1CCN(C(=O)CCBr)CC1`, the normalized intracellular growth reads like this: (time point: T3 (3 h)) 0.9595 ± 0.0073; (time point: Tfinal (~6 h)) 1.08 ± 0.16.

Turning to `N[C@H]1CONC1=O`, the normalized intracellular growth stood at 0.98 ± 0.079 (time point: T3 (3 h)) and 0.934 ± 0.19 (time point: Tfinal (~6 h)).

For `CCCCC1C(=O)N(c2ccccc2)N(c2ccc(O)cc2)C1=O` (stereo unspecified), the normalized intracellular growth (time point: T3 (3 h)) is 1.02 ± 0.013 and the normalized intracellular growth (time point: Tfinal (~6 h)) is 1.24 ± 0.086.

Take `COc1cc2nc(N3CCN(C(=O)C4COc5ccccc5O4)CC3)nc(N)c2cc1OC` (stereo unspecified): the normalized intracellular growth worked out at 0.957 ± 0.047 (time point: T3 (3 h)) and 0.951 ± 0.058 (time point: Tfinal (~6 h)).

Regarding `CC(=O)Nc1ccc(OC(=O)c2ccccc2O)cc1`, the normalized intracellular growth runs as follows: (time point: T3 (3 h)) 0.991 ± 0.031; (time point: Tfinal (~6 h)) 1.05 ± 0.11.
